This data set concerns insulin. Put plainly: Evaluation of aggregation state of heat-denatured insulin using light-absorption/fluorescence characteristics of rose bengal as index. Conditions: insulin 17 μM, dye 1 μM, heat-stirred at 55° C. The procedure: 40 mg of insulin (manufactured by FUJIFILM Wako Pure Chemical Corporation) was added to 2 mL of an aqueous solution of 25 mM of hydrochloric acid and 100 mM of sodium chloride, and dissolved by being left to stand. The obtained insulin solution was heat-stirred at 200 rpm at 55° C. to cause heat denaturation of the insulin, thereby starting the aggregation reaction of the insulin. At 0, 5, 10, 15, 20, 25, 30, 35, 40, 50, 60, 70, 80, and 90 minutes after starting heat-stirring, each of 100 μL of the insulin solution was extracted and ice-cooled. The ice-cooled insulin solution, and rose bengal (manufactured by FUJIFILM Wako Pure Chemical Corporation) were added to distilled water such that final concentrations were each 17 μM and 1 μM. The obtained solution was put in a spectroscopic measurement cell to measure the light-absorption/fluorescence characteristics. The excitation wavelength in fluorescence measurement was 530 nm.

Structures are written as SMILES.

With `O=C(O)c1c(Cl)c(Cl)c(Cl)c(Cl)c1-c1c2cc(I)c(=O)c(I)c-2oc2c(I)c(O)c(I)cc12` [rose bengal], the “heat denaturation time at the minimum point of absorbance at around 560 nm and maximum absorbance (decreasing, thereafter increasing)” value (25 mM HCl/100 mM NaCl, absorption) is “around 30 minutes”. For the same compound, the “heat denaturation time at the minimum point of fluorescence intensity at around 570 nm and maximum fluorescence intensity (decreasing, thereafter increasing)” value (excitation 530 nm) is “around 30 minutes”.

For the origin of these results see US20240319202A1, “METHOD FOR EVALUATING AGGREGATION STATE OF AGGREGATIVE PROTEIN” (HAMAMATSU PHOTONICS K.K., priority 2023, published 2024).
